{"source": "patent US12208074B2", "about": "“Butyrate and beta-hydroxybutyrate compositions” (priority 2016, dated 2025)", "origin": "cited, not measured here", "note": "At least one compound was matched to its structure with a doubt left."}
{"molecule": "CCCC(=O)O", "note": "[Butyrate, butyrate]", "values": [{"measurement": "Reduction of serum triglycerides", "setting": "compared to controls", "value": "≤ 50", "unit": "%"}, {"measurement": "Increase of insulin sensitivity", "setting": "in vivo", "value": "≤ 300", "unit": "%"}, {"measurement": "Lowering of fasting insulin", "setting": "in vivo", "value": "~50", "unit": "%"}, {"measurement": "Lowering of serum cholesterol", "setting": "various studies", "value": "≤ 25", "unit": "%"}]}
